According to PubChem BioAssay AID1347423 (Functional Genomics Laboratory (NCATS/FGL), 2020):
Hit rate of the full screen: of about 52,000 sequences, about 210 (0.4%) were called active.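 Rule for the calls: active = gene whose silencing raises cell survival under the drug, median off-target-corrected z-score across its silencing RNAs 2 or more; inactive = the rest.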 The list shows a part of the results.

Test: Resistance to Poly (ADP-Ribose) Polymerase inhibitor: Gene Identification via Genome-wide siRNA Screen
Conditions: mouse BRCA2 R2336H ES cells, olaparib, CellTiter-Glo viability; active compounds read high
In short: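 Mouse BRCA2 R2336H ES cells were reverse-transfected with siRNA (20 nM final), treated at 48 h with 500 nM olaparib, and read by CellTiter-Glo after 72 h. Scores: MAD-based z per siRNA, median per gene, seed off-target correction.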

Row | Sequence | z-score
1 | GGAAGAGGAACAGUUAGCCTT against Zfp553 | inactive: 1.4
2 | GCUUAAGGAUCCAUAAUGUTT against Musk | inactive: -0.0655
3 | GGAUCAAGCCGAACAGUUCTT against Pigk | inactive: -0.282
4 | CGACAAAAGCCACCUUUCGTT against Tm4sf4 | inactive: 2.82
5 | GGCCUUUAGCACCUGUGUGTT against Olfr583 | inactive: 0.153
6 | GCUUGGACUGGAGUGAAGCTT against LOC208158 | inactive: 0.525
7 | GGCAUGAGGUUCAAGAUUUTT against Hsd17b9 | inactive: 0.554
8 | GGAGCUGAGAUCAAUUCAATT against Ankrd17 | inactive: -0.638
9 | GCCUUCUCCCAUGUCUAAATT against Bmp15 | inactive: -0.991
10 | GGAUUCAAACCUAAGUUUGTT against Mtap4 | inactive: -0.246
11 | GGAUCCUAGAAGCAGUUGCTT against Car4 | inactive: 0.791
12 | GGGUUUUCAGGAGUAUGUCTT against V1re8 | inactive: 1.81
13 | GUUCAUGUCUAUCCUGUCUTT against Hba-x | inactive: 0.36
14 | GGCCUAAAAAGCAACAUGUTT against Cuzd1 | inactive: 0.379
15 | GGUCUCUCAUUACCACAUUTT against Olfr69 | inactive: -0.013
16 | GGGAACCUCUAUGACAAAATT against Nek9 | inactive: 1.05
17 | CCUGGAAUCCCAAGAACAGTT against Thap1 | inactive: -0.751
18 | GCGGAAUAUGUAAAAUCUCTT against Ppm1l | inactive: -0.804
19 | GCAAAGGAUUGUUAAACUATT against Manba | inactive: 0.418
20 | GCCAUUUUAGAGCAGAUCCTT against Rap2ip | inactive: -3.58
21 | GCUACUUUCUAAGUGCCAUTT against Pdcd4 | inactive: 0.426
22 | GCGUAGCAGCCUACAGUCATT against AU040377 | inactive: -1.57
23 | GGCGAACACUGUUUGAAGCTT against Ercc5 | inactive: 0.548
24 | GGAAAUCCCACCUGUGCCATT against Col8a1 | inactive: 2.45
25 | GCUUCUGUGGGCAACAGUUTT against Cryba1 | inactive: -1.96
26 | GGAAUUUCAUGGCAAGGGUTT against 1110001J03Rik | inactive: 1.31

Row | Sequence | z-score
27 | CCAAACCAGAAUGUUAAAATT against Fgf12 | inactive: 0.07
28 | GGUCGCUUUGGCAUUAUGGTT against Mrpl22 | inactive: 0.0442
29 | GCCAAGACCUAUGAGUAUATT against Gm964 | inactive: -0.564
30 | CGGCGGUUUAAUGAAAAUATT against Cbfa2t2h | inactive: -1.7
31 | GGAUUUGGGCCCAUUUUUGTT against Cntn1 | inactive: -1.78
32 | GCAUGUGGUUUCUAUAUAUTT against Sertad4 | inactive: 1.31
33 | GGUGGUGACAGCUGAACAATT against 4732465J04Rik | inactive: -0.626
34 | GGACUCAGAAUUUUUUUGUTT against Mllt3 | inactive: 0.186
35 | GGGAGAUGGCGUGACAGAATT against Trappc3 | inactive: -1.51
36 | GGAGAAUCCUGUUUUUUGUTT against Elp4 | inactive: 0.472
37 | CCGCUAUCCUCUAUCUCCATT against Dhx34 | inactive: -0.302
38 | UGUCAGUGCAGAAUAGCACTT against Olfr658 | inactive: -0.349
39 | CCAUGAUUUACAAUACUACTT against Cebpg | inactive: 0.0942
40 | GCCCUAGCUUGUAUGGUUCTT against Rsad1 | inactive: 0.788
41 | GGCCUGGCUGUGGAAUUCATT against Pvt1 | inactive: -1.61
42 | CCUAUAAGAUGUGCUCUAUTT against Carhsp1 | inactive: -1.14
43 | GGAAACAAAUUGACUGUUATT against Rnf35 | inactive: -1.44
44 | GUUGGAGUUGAGUGAUAUUTT against Krtap3-3 | inactive: -1.09
45 | GGUCCGAUUCAAAUACCCATT against 8430411H09Rik | inactive: -1.36
46 | GGCUGAACAAAGGUAGAGATT against Ccl1 | inactive: 0.285
47 | CCUACGAGGAUACUUACAATT against 3000004C01Rik | inactive: -0.732
48 | GGUUCUUCUGGCUAGGCACTT against Sgk | inactive: -0.574
49 | GGUAUAAGGAAGGCCUUCUTT against Olfr186 | inactive: 1.05
50 | GGUAUGUGGCAUUUAUUUGTT against Hif1a | inactive: 1.27
51 | GGAACUUGGCCUACUUAUGTT against C130071C03Rik | inactive: -0.817
52 | GGAUGUCCCACUGCUUUACTT against 5730466C23Rik | inactive: -0.562

Single values from the results shown:
Under z-score, CCGCUAUCCUCUAUCUCCATT against Dhx34 has the entry inactive: -0.302
Under z-score, GGAUUUGGGCCCAUUUUUGTT against Cntn1 has the entry inactive: -1.78
Under z-score, GCCCUAGCUUGUAUGGUUCTT against Rsad1 has the entry inactive: 0.788
Under z-score, GGAAACAAAUUGACUGUUATT against Rnf35 has the entry inactive: -1.44
Under z-score, GGUUCUUCUGGCUAGGCACTT against Sgk has the entry inactive: -0.574

(further entries)

Row | Sequence | z-score
53 | GGCCACAUGUGUGUUCUGATT against 5730455A04Rik | inactive: -1.41
54 | GCAGUACCUGUUCAGUUCGTT against Slc26a4 | inactive: -1.66
55 | GGAGAAAUAUGUAUGUACATT against Ece2 | inactive: 1.95
56 | GGGAAAUCUAUUUUUGUGATT against Mobkl2c | inactive: -0.0618
57 | GGUUUGGUGUCAGGUGACATT against Olfr1181 | inactive: -1.18
58 | GGCUGUUCGUGCAAGCCUATT against BC060615 | inactive: 0.876
59 | GGCUUAAGGCUAAUGGUCUTT against Fxyd5 | inactive: 1.24
60 | CCCUAUACAGCGUACCCAATT against Eya2 | inactive: -2.27
61 | CCGUGGACUAUAACAACUCTT against GnT-IX | inactive: 0.0945
62 | CGAGAUUUUUGUAUCGUUUTT against Csrp2bp | inactive: 0.147
63 | GGACGUGCUCCUUAAACUCTT against Snx8 | inactive: -0.327
64 | CCAGAGGCCAUAGUUAUGUTT against Hsn2 | inactive: 0.363
65 | GGUCUCACUGAAAAUGAAATT against Ces1 | inactive: 1.03
66 | GGAGCAGGAGAAAAUUUUGTT against Olfr437 | inactive: -0.0423
67 | GCAGACCCAGUUUUGACAATT against Llglh | inactive: -0.348
68 | GGACCAUCGAAGAUGACUUTT against Pus1 | inactive: 0.00935
69 | GGUGAUGUUUUAUGGCAGGTT against Olfr1335 | inactive: 0.775
70 | CCUUGUGAAUACCCUAAUUTT against Mrpl43 | inactive: 0.236
71 | GGACUUGAUUGAAGUCAUATT against C630028F04Rik | inactive: 1.11
72 | GCAGGAGUAAGAAUGAAUGTT against Luzp1 | inactive: 0.871
73 | GGGAGACUUCGAAUAUUUATT against BC022133 | inactive: -0.222
74 | GGACUUAUUUCUUUAAGGATT against Mmp17 | inactive: -0.571
75 | GCUUAAGCCGGGUAAUAUCTT against Ccl6 | inactive: -0.755
76 | GGAAUUUCUUCUCUAUGUGTT against D630002G06 | inactive: 0.135
77 | GCGAUUCAAACUUAUUCGATT against Pcdhb15 | inactive: 0.749
78 | GCCAUAGAAAGGAUUCAUATT against Epb4.1l4a | inactive: -0.65

Row | Sequence | z-score
79 | GGAAAUAAAGUCCAUAGAATT against B3gnt3 | inactive: 0.555
80 | GCAUGUAGACUACAACGUGTT against Myoz1 | inactive: 0.365
81 | GCAAAUGCACACUCUAGGATT against Ptprn2 | inactive: -0.322
82 | GCAAUCGACCGCAUCCUAATT against B130050K08 | inactive: 1.09
83 | GCAUGUGAUUACCUUUGUATT against 1110056N09Rik | inactive: 0.641
84 | GGUUUUGUAAUGUACAAACTT against Tada3l | inactive: 1.18
85 | GGUUGAAGUGUGUUGCUUUTT against Atp13a | inactive: -0.651
86 | GGCAAAAAAACACAAAGGCTT against E130320D18 | inactive: -1.83
87 | GGAUUUCCUGGAAAAUUCCTT against Siat8a | inactive: 0.62
88 | GCCGUAUGUUGAUAUCUACTT against Ms4a1 | inactive: 0.0544
89 | GGUUGUAUUGAGGUCAAGGTT against Olfr1462 | inactive: 0.689
90 | GGCUCACGCUCGUUACCUATT against A230063L24Rik | inactive: -1.45
91 | GCAGAUGCAUGAGAAAUCGTT against Agtrl1 | inactive: 2.16
92 | GCUGGUUUUGAACUGUACATT against Flt4 | inactive: -0.909
93 | GGAUAGUCAGAAAUGGAAATT against 2310010I16Rik | inactive: 1.21
94 | GGCUAAUGGACAAAAAAUUTT against 4933428G09Rik | inactive: -0.819
95 | GCCGAACAUACUGAACUGCTT against B2m | inactive: -0.175
96 | CCUUGCUUAUUAGUCAAGUTT against 2610036D13Rik | inactive: -0.728
97 | CGCCCGAAGCAAUAAAGAGTT against Rpl28 | inactive: 1.15
98 | GGCUAGCUAACUAUCUCUGTT against 9230105I15Rik | inactive: 0.89
99 | GCAUAGCCACAAGGUUAAUTT against 1700019G17Rik | inactive: 0.378
100 | CCGCUAGACAAAUUUUGCCTT against Slc6a2 | inactive: 0.489
101 | CGUUUGUGGUUAAGGUAGATT against Sh2bpsm1 | inactive: 1.43
102 | UGAUUGUCCUUACAAUGGUTT against Olfr1065 | inactive: -0.19
103 | CGAUUUAAACAUGGAAUUCTT against 5730405I09Rik | inactive: 1.56
104 | GCCUUAGAACUCCUCAUUCTT against 0610008C08Rik | inactive: 0.0492

Some of the entries above, set out differently:
GGCUAAUGGACAAAAAAUUTT against 4933428G09Rik
  z-score: inactive: -0.819
GCCGAACAUACUGAACUGCTT against B2m
  z-score: inactive: -0.175
